Source: PubChem BioAssay AID504764 (Drosophila RNAi Screening Center, 2011)

- Assay: 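Knock-downs that raise or lower a Notch target reporter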 (primary screen)
- System: Drosophila Kc167 cells
- Reagents: long dsRNA against Drosophila genes
- Time to read-out: about 5 days (4 days dsRNA, then 24 h after transfection)
- Conditions: transfection of constitutively active membrane-tethered Notch lacking the extracellular domain, read 24 h later
- Read-out: 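Firefly luciferase from an E(spl)m3 reporter with active Notch, plus control-promoter and uninduced reporter wells for normalisation; unnormalised counts, duplicate wells a and b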
- Scale: induced reporter light, run 1, well a and induced reporter light, run 1, well b: higher = more light from the Notch target reporter with active Notch; control promoter light, run 1, well a and control promoter light, run 1, well b: higher = more light from the viral control promoter (cell number, transfection, viability); uninduced reporter light, run 1, well a: higher = more light from the Notch target reporter without active Notch
- Active means: 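Wells with low control signal or poorly matching duplicates excluded; duplicates averaged; per source plate, z beyond ±2 for induced/control log2 ratio or beyond ±1.8 for induced/uninduced marks a hit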
- Meaning of the calls: active = modifier hit (raised or lowered Notch signal); inactive = not a hit
The deposit covers about 22,000 reagents; below is a random part of those that have a named target and a result. Of all reagents, 403 (1.9%) were called active. 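Unnormalised raw counts per well; ratio z-scores behind the hit calls and whether each hit raises or lowers signal are not deposited.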 Reagents against one gene are numbered here. The record does not give: the amount of reagent.

After knock-down of CG4554 the results were induced reporter light, run 1, well a = 1.57e5; induced reporter light, run 1, well b = 1.50e5; control promoter light, run 1, well a = 1.75e5; control promoter light, run 1, well b = 1.87e5; uninduced reporter light, run 1, well a = 11700; active.
With knock-down of ZnT77C #1, the screen gave induced reporter light, run 1, well a = 1.66e5; induced reporter light, run 1, well b = 1.62e5; control promoter light, run 1, well a = 1.33e5; control promoter light, run 1, well b = 1.22e5; uninduced reporter light, run 1, well a = 9092; inactive.
Knock-down of ZnT77C #2 gave: induced reporter light, run 1, well a = 1.84e5; induced reporter light, run 1, well b = 1.22e5; control promoter light, run 1, well a = 1.06e5; control promoter light, run 1, well b = 1.15e5; uninduced reporter light, run 1, well a = 9985; inactive.
For LSm1, the values are induced reporter light, run 1, well a = 45605; induced reporter light, run 1, well b = 39815; control promoter light, run 1, well a = 49495; control promoter light, run 1, well b = 43675; uninduced reporter light, run 1, well a = 2900; inactive.
For Bdp1, the values are induced reporter light, run 1, well a = 2.04e5; induced reporter light, run 1, well b = 2.46e5; control promoter light, run 1, well a = 1.79e5; control promoter light, run 1, well b = 1.72e5; uninduced reporter light, run 1, well a = 18550; inactive.
With knock-down of Cdc6 the results were induced reporter light, run 1, well a = 97035; induced reporter light, run 1, well b = 83310; control promoter light, run 1, well a = 64405; control promoter light, run 1, well b = 20600; uninduced reporter light, run 1, well a = 8170; inactive.
Against CG2124 the deposit lists induced reporter light, run 1, well a = 1.26e5; induced reporter light, run 1, well b = 1.01e5; control promoter light, run 1, well a = 2.16e5; control promoter light, run 1, well b = 1.93e5; uninduced reporter light, run 1, well a = 8075; inactive.
Knock-down of Seipin resulted in: induced reporter light, run 1, well a = 1.30e5; induced reporter light, run 1, well b = 1.41e5; control promoter light, run 1, well a = 2.82e5; control promoter light, run 1, well b = 1.82e5; uninduced reporter light, run 1, well a = 8455; inactive.
Depletion of oaf gave: induced reporter light, run 1, well a = 1.14e5; induced reporter light, run 1, well b = 1.25e5; control promoter light, run 1, well a = 99800; control promoter light, run 1, well b = 48355; uninduced reporter light, run 1, well a = 8315; inactive.
Against CG14491, the values are induced reporter light, run 1, well a = 86005; induced reporter light, run 1, well b = 79635; control promoter light, run 1, well a = 1.12e5; control promoter light, run 1, well b = 1.17e5; uninduced reporter light, run 1, well a = 6938; inactive.
With knock-down of Slimp, the record shows induced reporter light, run 1, well a = 1.60e5; induced reporter light, run 1, well b = 1.74e5; control promoter light, run 1, well a = 2.16e5; control promoter light, run 1, well b = 2.04e5; uninduced reporter light, run 1, well a = 14220; inactive.
Knock-down of CG34342 resulted in: induced reporter light, run 1, well a = 2.15e5; induced reporter light, run 1, well b = 2.01e5; control promoter light, run 1, well a = 2.18e5; control promoter light, run 1, well b = 1.64e5; uninduced reporter light, run 1, well a = 9788; inactive.
Ufl1 gave induced reporter light, run 1, well a = 1.41e5; induced reporter light, run 1, well b = 1.36e5; control promoter light, run 1, well a = 88530; control promoter light, run 1, well b = 87120; uninduced reporter light, run 1, well a = 8310; inactive.
PheRS-m showed induced reporter light, run 1, well a = 1.43e5; induced reporter light, run 1, well b = 1.70e5; control promoter light, run 1, well a = 1.78e5; control promoter light, run 1, well b = 1.87e5; uninduced reporter light, run 1, well a = 15125; inactive.
After knock-down of RhoGAP15B #1 the results were induced reporter light, run 1, well a = 1.49e5; induced reporter light, run 1, well b = 1.06e5; control promoter light, run 1, well a = 1.10e5; control promoter light, run 1, well b = 66265; uninduced reporter light, run 1, well a = 9675; inactive.
RhoGAP15B #2 scored induced reporter light, run 1, well a = 65745; induced reporter light, run 1, well b = 78565; control promoter light, run 1, well a = 84345; control promoter light, run 1, well b = 60460; uninduced reporter light, run 1, well a = 9230; inactive.
Depletion of CG14507 gave: induced reporter light, run 1, well a = 1.04e5; induced reporter light, run 1, well b = 93600; control promoter light, run 1, well a = 1.54e5; control promoter light, run 1, well b = 1.40e5; uninduced reporter light, run 1, well a = 10540; inactive.
Knock-down of Nuf2 gave: induced reporter light, run 1, well a = 1.15e5; induced reporter light, run 1, well b = 1.30e5; control promoter light, run 1, well a = 1.36e5; control promoter light, run 1, well b = 1.62e5; uninduced reporter light, run 1, well a = 13360; inactive.
Mur18B scored induced reporter light, run 1, well a = 48015; induced reporter light, run 1, well b = 42680; control promoter light, run 1, well a = 36260; control promoter light, run 1, well b = 25585; uninduced reporter light, run 1, well a = 5078; inactive.
LManII scored induced reporter light, run 1, well a = 2.71e5; induced reporter light, run 1, well b = 2.71e5; control promoter light, run 1, well a = 1.90e5; control promoter light, run 1, well b = 1.99e5; uninduced reporter light, run 1, well a = 17690; inactive.
With knock-down of CG5191 #1, the record shows induced reporter light, run 1, well a = 98730; induced reporter light, run 1, well b = 1.12e5; control promoter light, run 1, well a = 89775; control promoter light, run 1, well b = 1.12e5; uninduced reporter light, run 1, well a = 8600; inactive.
After knock-down of CG5191 #2 the results were induced reporter light, run 1, well a = 1.47e5; induced reporter light, run 1, well b = 1.42e5; control promoter light, run 1, well a = 2.02e5; control promoter light, run 1, well b = 2.00e5; uninduced reporter light, run 1, well a = 12100; inactive.
With knock-down of CG40341 (retired record) #1, the record shows induced reporter light, run 1, well a = 85850; induced reporter light, run 1, well b = 64585; control promoter light, run 1, well a = 73985; control promoter light, run 1, well b = 77290; uninduced reporter light, run 1, well a = 7328; inactive.
Depletion of CG40341 (retired record) #2 gave: induced reporter light, run 1, well a = 67035; induced reporter light, run 1, well b = 76275; control promoter light, run 1, well a = 78590; control promoter light, run 1, well b = 81425; uninduced reporter light, run 1, well a = 6460; inactive.

A few values from the list.
ZnT77C #1, induced reporter light, run 1, well b → 1.62e5
For “induced reporter light, run 1, well b”, CG14507 has 93600
